Results are given in words; binding and its absence hold for the method and conditions named. Sequences can lack the tags named with a protein.

This test concerns the target Bradyzoite Serological Marker (BSM), recombinant, C-terminal histidine tag (Toxoplasma gondii) (UniProt S8F6A1). The experiment in a line: SEC-MALS; S200 Increase 10/300 GL column; 50 uL injected of protein at a minimum of 4 mg/mL; flow 0.5 mL/min; both purified.

B1: Bradyzoite Serological Marker (BSM), recombinant, C-terminal histidine tag (protein, UniProt S8F6A1 1-763)
chain: MAAVVTGSDMLLGFELGSQMSVVASGTRDGADRAVNKGGLDKMVARRFIPSSIAYAGKVRLFGEEAEARVNAEPNDTIMELPLWIPVHTVEQAKALETRLAFCPSVQVGLLSDGELLFHVDFNNQQLKIPLPVAVGAFVGRLHTAGLHLSGACSTEQNMSGIDLIRHMHQHRHLPHIGVLVVPSSITEKDLMILTAAQGVEKGPSIMLSRISALINWWCCEKLPAEYESLIRLQSATGASVKEKGVVHVALVDVGFSEISVAVIELRTASTEQDPLVVRQPQKQVSVKVLGSATAGDIGVLDAVNELAKHLRHHIKERFHEEIRTKTARYWRMSKACMKAIRALCDVNQAAIDLKFILKNSDVRYDITRKHFDKLCAPLQAKLRAFLEETFSKAGVAGTNVVAADVLNSLARSAWIHSTIAEAVHCEVKAGKAAKVRWVEDGGAGAALGAVYWAADKKYVDNLVDRNPPYRTDKLLWMTAMETDIQKVEQGELERRYLLAHFESYAFEIQQAAMTVKEGLVRNAEQLKKEIKDAETALGALHQAPLEEVKHAYENFRSYLMNSEPRLFEAIENERATRIGQAKGIDPRRTMDIVVSQLGQESNAKLPNAVLLKRAKRDTEEASQLLTDGQTDLAVYLANQSLGYLSNMDAKTASDADKTAAIELQLHNYLQLAKAQTTEAVEDRAIDYRSTLLTQALDNCNKALAIDSKNADALFQRSAAYMSMNDFSRAKADVDAGLAIVPGSETGKALSAEITERQHSHTA
Regarding B1, the binding entry was “no binding (tested: injected at a minimum of 4 mg.mL^-1)”.

Source of the values: article PMC12254245.
